Laboratory results from publication PMC2860243.

By UniProt entry, the sequences of proteins in these tests, tags left out.
UniProt P20263: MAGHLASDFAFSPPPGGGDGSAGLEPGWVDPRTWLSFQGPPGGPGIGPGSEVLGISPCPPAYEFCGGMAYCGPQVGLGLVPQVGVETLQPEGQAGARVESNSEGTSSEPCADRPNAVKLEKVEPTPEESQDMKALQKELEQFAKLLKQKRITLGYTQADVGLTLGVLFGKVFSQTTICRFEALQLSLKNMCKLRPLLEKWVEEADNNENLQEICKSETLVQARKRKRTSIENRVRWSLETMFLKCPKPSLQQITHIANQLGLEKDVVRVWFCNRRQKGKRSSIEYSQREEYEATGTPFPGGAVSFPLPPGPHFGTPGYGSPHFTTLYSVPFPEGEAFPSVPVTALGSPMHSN

T1: FLAG-tagged Tcfcp2l1 (F-Tcfcp2l1) (mouse) (UniProt Q3UNW5)
T1 sequence: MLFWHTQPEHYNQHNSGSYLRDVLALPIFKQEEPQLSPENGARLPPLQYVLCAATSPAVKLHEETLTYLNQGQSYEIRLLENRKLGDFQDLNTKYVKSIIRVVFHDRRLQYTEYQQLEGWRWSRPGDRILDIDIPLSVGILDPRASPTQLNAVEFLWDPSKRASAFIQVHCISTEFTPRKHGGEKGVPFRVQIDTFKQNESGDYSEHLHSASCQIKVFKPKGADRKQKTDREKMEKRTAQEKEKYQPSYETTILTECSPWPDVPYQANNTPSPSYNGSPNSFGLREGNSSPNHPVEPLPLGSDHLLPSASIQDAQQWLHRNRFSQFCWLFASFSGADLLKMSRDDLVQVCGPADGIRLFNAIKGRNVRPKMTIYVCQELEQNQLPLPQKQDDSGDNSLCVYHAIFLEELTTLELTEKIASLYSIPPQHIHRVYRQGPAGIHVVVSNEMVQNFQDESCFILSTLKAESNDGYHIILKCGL

B1: Tcfcp2 (protein, UniProt Q9ERA0 1-502)
chain: MAWALKLPLADEVIESGLVQDFDASLSGIGQELGAGAYSMSDVLALPIFKQEESSLPPDNENEILPFQYVLCAATSPAVKLHDETLTYLNQGQSYEIRMLDNRKLGELPELNGKLVKSIFRVVFHDRRLQYTEHQQLEGWRWNRPGDRILDIDIPMSVGVIDPRANPTQLNTVEFLWDPSKRTSVFIQVHCISTEFTMRKHGGEKGVPFRVQIDTFKENGNGEYTEHLHSASCQIKVFKPKGADRKQKIDREKMEKRTPHEKEKYQPSYETTILTECSPWPEITYVNNSPSPGFNSSHSSFSLGEGNGSPNHQPEPPPPVTDNLLPTTTPQEAQQWLHRNRFSTFTRLFTNFSGADLLKLTRDDVIQICGPADGIRLFNALKGRMVRPRLTIYVCQESLQLREQQPQPQPQPQKQEDGDSNGTFFVYHAIYLEELTAVELTEKIAQLFSISPHQISQIYKQGPTGIHVVISDEMVQNFQEEACFILDTMEAETSDSYHVILK
B2: Ubp1 (protein, UniProt Q811S7 1-540)
chain: MAWVLSMDEVIESGLVHDFDSSLSGIGQELGAGAYSMSDVLALPIFKQEDSSLSLEDEAKHPPFQYVMCAATSPAVKLHDETLTYLNQGQSYEIRMLDNRKMGDMPELSGKLVKSIIRVVFHDRRLQYTEHQQLEGWKWNRPGDRLLDLDIPMSVGIIDTRTNPSQLNAVEFLWDPAKRTSAFIQVHCISTEFTPRKHGGEKGVPFRIQVDTFKQNENGEYTDHLHSASCQIKVFKPKGADRKQKNDREKMEKRTAHEKEKYQPSYDTTILTEMRLEPIIEDAVEHEQKKSSKRTLPADYGDSLAKRGSCSPWPDTPTAYVNNSPSPAPTFTSSQPSTCSVPDSNSSSPNHQGDGAAQASGEQIQPSATTQETQQWLLKNRFSSYTRLFSNFSGADLLKLTKEDLVQICGAADGIRLYNSLKSRSVRPRLTIYVCQEQPSSTALQGQPQAAGSGGESGGGTPSVYHAIYLEEMVASEVARKLASVFNIPFHQINQVYRQGPTGIHILVSDQMVQNFQDETCFLFSTVKAENNDGIHIILK
B3: Grhl2 (protein, UniProt Q8K5C0 1-625)
chain: MSQESDNNKRLVALVPMPSDPPFNTRRAYTSEDEAWKSYLENPLTAATKAMMSINGDEDSAAALGLLYDYYKVPRDKRLLSVSKASDSQEDQDKRNCLGTSEAQINLSGGENRVQVLKTVPVNLCLSQDHMENSKREQYSVSITESSAVIPVSGITVVKAEDFTPVFMAPPVHYPRADSEEQRVVIFEQTQYDLPSIASHSSYLKDDQRSTPDSTYSESFKDGASEKFRSTSVGADEYTYDQTGSGTFQYTLEATKSLRQKQGEGPMTYLNKGQFYAITLSETGDNKCFRHPISKVRSVVMVVFSEDKNRDEQLKYWKYWHSRQHTAKQRVLDIADYKESFNTIGNIEEIAYNAVSFTWDVNEEAKIFITVNCLSTDFSSQKGVKGLPLMIQIDTYSYNNRSNKPIHRAYCQIKVFCDKGAERKIRDEERKQNRKKGKGQASQAQCNNSSDGKMAAIPLQKKSDITYFKTMPDLHSQPVLFIPDVHFANLQRTGQVYYNTDDEREGSSVLVKRMFRPMEEEFGPTPSKQIKEENVKRVLLYVRKENDDVFDALMLKSPTVKGLMEALSEKYGLPVEKITKLYKKSKKGILVNMDDNIIEHYSNEDTFILNMESMVEGFKITLMEI
B4: lig3 (protein, UniProt P97386 1-1015)
chain: MTLAFKILFPRNLCALGRKELCLFPEQNRWAAISQFSQWSETNLLGGCCLLQRRKPVLALQRGHLRPRATHLTFWPGSHVGLCTGPCAMAEQRFCVDYAKRGTAGCKKCKEKIVKGVCRIGKVVPNPFSESGGDMKEWYHIKCMFEKLERARATTKKIEDLTELEGWEELEDNEKEQISQHIADLSSKAAATPKKKAAVQAKLTTTGQVTSPVKGASFITSTNPRKFSGFSAAKPNNSEQAPSSPAPGTSLSASKCDPKHKDCLLREFRKLCAMVAENPSYNTKTQIIHDFLQKGSTGGFSDGFHGDVYLTVKLLLPGVIKSVYNLNDKQIVKLFSRIFNCNPDDMARDLEQGDVSETIRIFFEQSKSFPPAAKSLLTIQEVDAFLLHLSKLTKEDEQQQALQDIASRCTANDLKCIIRLIKHDLKMNSGAKHVLDALDPNAYEAFKASRNLQDVVERVLHNEQEVEKDPGRRRALRVQASLMTPVQPMLAEACKSIEYAMKKCPNGMFSEIKYDGERVQVHKKGDHFSYFSRSLKPVLPHKVAHFKDYIPKAFPGGQSMILDSEVLLIDNNTGKPLPFGTLGVHKKAAFQDANVCLFVFDCIYFNDVSLMDRPLCERRKFLHDNMVEIRNRIMFSEMKQVTKASDLADMINRVIREGLEGLVLKDVKGTYEPGKRHWLKVKKDYLNEGAMADTADLVVLGAFYGQGSKGGMMSIFLMGCYDPDSQKWCTVTKCAGGHDDATLARLQKELVMVKISKDPSKIPSWLKINKIYYPDFIVPDPKKAAVWEITGAEFSRSEAHTADGISIRFPRCTRIRDDKDWKSATNLPQLKELYQLSKDKADFAVVAGDEASPTTGGSSGENEGTAGSAGPCKGPPSKSSASAKTTEQKLNSPSSRGGIKPIPKHSPMKPGEKLAVKSSPVKVGMKRKATDETPCLKKVLLDVFTGVRLYLPPSTPDFKRLKRYFVAFDGDLVQEFDMGSATHVLGNREKNTDAQLVSSEWIWACIRKRRLIAPC
B5: Emsy (protein, UniProt Q8BMB0 1-1264)
chain: MPVVWPTLLDLSRDECKRILRKLELEAYAGVISALRAQGDLTKEKKDLLGELSKVLSISTERHRAEVRRAVNDERLTTIAHKMNLSLYLGERPSYSMSGPNSSSEWSIEGRRLVPLMPRLVPQTAFTVTANAVANAAVQHNASLPVPAETASKDGVSCSDEDEKPRKRRRTNSSSSSPVVLKEVPKAVVPVSKTITVPVSGSPKMSNIMQSIANSLPPHMSPVKITFTKPSTQTTNTTTQKVIIVTTSPSSTFVPNILSKSHNYAAVTKLVPTSVIASTTQKPPVVITASQASLVTSSSNGNSSSTSSPISSTVAVTTVVSSTPSVVMSTVAQGVSTSAIKVASTRLPSPKSLVSGPTQILAQFPKQHQQSPKQQLQQVQQQTQQPVAQPSSVSQQQQPQQSALPPGIKPTIQIKQESGVKIITQQVQPSKILPKPVTATLPTSSNSPIMVVSSNGAIMTTKLVTTPTGTQATYTRPTVSPSLGRVATTPGAATYVKTTSGSIITVVPKSLATLGGKIISSNIVSGTTTKITTIPMTSKPNVIVVQKTTGKGTTIQGLPGKNVVTTLLNAGGEKTLQTVPAGAKPAIITATRPITKMIVTQPKGIGSAVQPAAKIIPTKIVYGQQGKTQVLIKPKPVTFQATVVSEQTRQLVTETLQQASRVADASNSSAQEGKEEPQGYTDSSSSSTESSQSSQDSQPVVHVIASRRQDWSEHEIAMETSPTIIYQDVSSESQSATSTIKALLELQQTTVKEKLESKPRQPTIDLSQMAVPIQMTQEKRHSPESPSIAVVESELVAEYITTVSHRSQPQQPSQPQRTLLQHVAQSQTATQTSVVVKSIPASSPGAITHIMQQALSSHTAFTKHSEELGTEEGEVEEMDTLDPQTGLFYRSALTQSQSTKQQKLSQPQLEQTQLQVKTLQCFQTKQKQTIHLQADQLQHKLTQMPQLSIRHQKLNPLQQEQAQPKPDAQHTQHTVVAKDRQLPTLMAQPPQTVVQVLAVKTTQQLPKLQQAPNQPKIYVQPQTPQSQMALPSSEKQPASQVEQPIITQGSSVTKITFEGRQPPTVTKITGGSSVPKLTSPVTSISPIQASEKTAVSDILQMSLMEAQIDTNVEHMVVDPPKKALATNVLTGEAGALPSTHVVVAGMTKCRESCSSPSAVGPPLTTRKIEAAGVPTTGQFMRIQNVGQKKAEESPTEIIIQAIPQYAIPCHSSSNVVVEPSGLLELNNFTSQQLDDDETAMEQDIDSSTEDGTEPSPSQSAVERS
B6: Hells (protein, UniProt Q60848 1-821)
chain: MAEQTEPAVITPAMLEEEEQLEAAGLEKERKMLEEAQKSWDRESTEIRYRRLQHLLEKSNIYSKFLLTKMEQQQLEEQKKKEKLEKKKRSLKLTEGKSLVDGNGEKPVMKKKRGREDESYNISEVMSKEEILSVAKKHKDNEDESSSTTSLCVEDIQKNKDSNSMIKDRLSQTVRQNSKFFFDPVRKCNGQPVPFQQPKHFTGGVMRWYQVEGMEWLRMLWENGINGILADEMGLGKTVQCIATIALMIQRGVPGPFLVCGPLSTLPNWMAEFKRFTPEIPTLLYHGTREDRRKLVKNIHKRQGTLQIHPVVVTSFEIAMRDQNALQHCYWKYLIVDEGHRIKNMKCRLIRELKRFNADNKLLLTGTPLQNNLSELWSLLNFLLPDVFDDLKSFESWFDITSLSETAEDIIAKEREQNVLHMLHQILTPFLLRRLKSDVALEVPPKREVVVYAPLCNKQEIFYTAIVNRTIANMFGSCEKETVELSPTGRPKRRSRKSINYSELDQFPSELEKLISQIQPEVNRERTVVEGNIPIESEVNLKLRNIMMLLRKCCNHPYMIEYPIDPVTQEFKIDEELVTNSGKFLILDRMLPELKKRGHKVLVFSQMTSMLDILMDYCHLRNFIFSRLDGSMSYSEREKNIYSFNTDPDVFLFLVSTRAGGLGINLTAADTVIIYDSDWNPQSDLQAQDRCHRIGQTKPVVVYRLVTANTIDQKIVERAAAKRKLEKLIIHKNHFKGGQSGLSQSKNFLDAKELMELLKSRDYEREVKGSREKVISDEDLELLLDRSDLIDQMKASRPIKGKTGIFKILENSEDSSAECLF

The binders below were run against T1, FLAG-tagged Tcfcp2l1 (F-Tcfcp2l1) (mouse) (assay: affinity purification with mass spectrometry; FLAG-affinity purification of F-Sall4, F-Dax1, F-Tcfcp2l1 or F-Esrrb from nuclear extract of ZHBTc4-derived ESC clones, buffer C-100, Benzonase, FLAG peptide elution; two purifications each without and with doxycycline (16 hr, Oct4 removed); hits present in both -Dox purifications).

binding, binds:
B1
B2
B3
B4
B5
B6

These binders were tested against FLAG-Oct4 (F-Oct4) (mouse) (UniProt P20263) (assay: affinity purification with mass spectrometry; FLAG-affinity purification of F-Oct4 from 1.5 ml ESC nuclear extract on anti-FLAG M2 agarose, buffer C-100 (20 mM HEPES pH 7.6, 100 mM KCl), washes with 0.02% NP-40, Benzonase, 4°C, FLAG peptide elution; three purifications; control ZHBTc4 extract).

binding, binds:
B2
B5
B6

What follows are binders tested against Oct4 (Pou5f1) (mouse (endogenous in 46C ESCs)) (UniProt P20263) (assay: affinity purification with mass spectrometry; immunoprecipitation of endogenous Oct4 (antibody sc-8628 cross-linked to protein G Sepharose) from 1 ml 46C ESC nuclear extract, Benzonase, washes with C-100*, 4°C, boiled in SDS-loading dye; control goat IgG).

binding, binds:
B2
B6

No constants are given. Whether binding was seen depends on the method and setting. Binding seen in cells or lysates may run through a third protein. A yes stands for co-enrichment or nearness to the bait. Other partners may have been found. For some assays here: Where a sequence is shown, tags or fusion partners need not be part of it.
